# Data published in the supplement of paper PMC3334620.
# The full ranking holds about 33,000 sequences; the median of “E-score (-0.5 to 0.5)” is about -0.0034, and the highest 2% start at about 0.25. The list shows a part of the results.
# Target: T1, Yap3 (UniProt P38749)
# T1 sequence: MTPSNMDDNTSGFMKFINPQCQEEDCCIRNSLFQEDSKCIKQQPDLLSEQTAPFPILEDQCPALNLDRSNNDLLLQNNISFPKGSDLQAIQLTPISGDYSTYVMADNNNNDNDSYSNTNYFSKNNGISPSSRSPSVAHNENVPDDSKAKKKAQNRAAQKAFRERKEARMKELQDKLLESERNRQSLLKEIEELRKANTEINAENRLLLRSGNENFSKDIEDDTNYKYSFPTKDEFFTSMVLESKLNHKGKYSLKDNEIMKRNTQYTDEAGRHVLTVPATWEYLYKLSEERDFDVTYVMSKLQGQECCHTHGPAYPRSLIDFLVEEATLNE
# Test: PBM E-score (8-mer binding enrichment) (E-score (-0.5 to 0.5)); higher = stronger / more preferred TF binding
# Details: protein concentration: 100 nM; construct: GST-full length
# Procedure, shortened: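 PURExpress in vitro transcription/translation supplied GST-tagged yeast transcription factors, either full-length or DNA-binding domain. Applied at about 100-200 nM to universal all-10-mer Agilent arrays double-stranded by primer extension, the bound protein was detected with fluorescent anti-GST. E-scores, modified Wilcoxon-Mann-Whitney statistics, were given by the Universal PBM Analysis Suite to ungapped eight-base words pooled with their reverse complements after masliner normalisation.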
row,Sequence,PBM E-score
1,CCTAAGTC,-0.166
2,ACTCGACT,-0.0208
3,GACTTCTA,-0.145
4,AGGCAGAC,-0.205
5,GGGCGTAA,-0.0188
6,CCTCTAAG,-0.133
7,CTGGCCTC,-0.139
8,ACCATCAG,-0.0749
9,CATTGGAA,0.0862
10,AGCTTATA,-5e-05
11,ACTTCACC,0.0212
12,CCCTGAGC,-0.176
13,ACTATAGG,-0.116
14,CGGGGGAC,-0.316
15,AATCTCCA,-0.0281
16,CAAAGTAG,-0.0464
17,TAGTGTAA,0.0898
18,ATCAAGTG,-0.00308
19,TATGCCCA,-0.0906
20,AAATGCAC,0.137
21,TCCATGGA,0.142
22,GAGATAGA,-0.0146
23,GGCCTCTA,-0.0631
24,CCATATTA,0.24
25,AAGTGTAC,0.00608

# Some of the entries so far, tab-delimited:
row	Sequence	PBM E-score
13	ACTATAGG	-0.116
14	CGGGGGAC	-0.316
15	AATCTCCA	-0.0281
16	CAAAGTAG	-0.0464
17	TAGTGTAA	0.0898

# Additional entries

row,Sequence,PBM E-score
1,GGTTGAAA,0.164
2,CGCAAACC,-0.0641
3,GTGATTGA,0.176
4,AGGAGTTC,-0.0378
5,AACTTCAG,0.0633
6,AGGCATGC,0.0328
7,CGCGAGAC,0.0103
8,CCCATGTA,-0.027
9,AAGGAAGA,0.0213
10,ACCTGCTG,0.0821
11,AAACCCGA,0.261
12,AGCGTCGA,0.124
13,CAAACAGC,0.0568
14,GGTTGGAC,-0.142
15,CGACGGTC,-0.183
16,AAGTGCTA,0.0165
17,ACCCCGAT,-0.162
18,AGCTTTCA,-0.0216
19,AATGGCCA,-0.054
20,GCTGCATA,0.0463
21,CTCATCAC,0.0219
22,GATCATGA,0.053
23,CAAACAAA,0.0409
24,AAGGGAGA,-0.219
25,TGGCTACA,0.0986

row,Sequence,PBM E-score
1,CACCTTGC,-0.0241
2,AAGGGCCA,-0.0432
3,CGCGCAAA,0.224
4,ACTCCTAA,0.0721
5,CTGGGTAA,0.107
6,ACTGCGTA,-0.206
7,ATAACATA,0.244
8,CGCCCGAG,-0.0413
9,TCCACTAA,0.0479
10,ATCGGGTG,0.125
11,CTGCCCCA,-0.041
12,ATACACGC,0.0444
13,AACACAAT,0.144
14,GTCCAGTA,-0.00318
15,ATTGTACG,0.0532
16,GAAACTAA,0.00343
17,GCTATGAA,0.163
18,ACGCTTTC,-0.171
19,CTGGCATC,-0.233
20,AGGGCCTA,-0.116
21,AATGTGCT,0.0764
22,TCCGGTCA,0.00023
23,AAGGTATC,-0.00987
24,CTGGCGTA,-0.272
25,CTATGGTC,-0.0584

row,Sequence,PBM E-score
1,AATCCGCA,0.174
2,CCAAGCCA,-0.0879
3,TCGTACAA,0.195
4,AAGAAAAG,0.125
5,CACTACTG,0.0352
6,AATAACAA,0.174
7,GAAGGCCA,-0.209
8,CAACGCGG,-0.0643
9,ACAGCCGC,-0.102
10,ACCATTCA,0.0103
11,ATCTTATA,0.237
12,CCCAGATA,-0.0909
13,ATTGACCG,0.122
14,ACAAGCCG,-0.016
15,GAACACGA,0.0502
16,AAGATAGT,0.2
17,GGTTCAAC,-0.159
18,GGTGCGAA,0.00736
19,TCGACACA,0.0129
20,ATAGAGTA,0.16
21,CACTACCG,-0.183
22,CCGGCTGA,-0.151
23,GGGGCGTA,-0.194
24,CCAGCTCA,-0.0366
25,ACTTTGTC,-0.0117

row,Sequence,PBM E-score
1,TAAACACA,0.125
2,ATGTCAAC,0.0562
3,AGGATCCG,-0.176
4,ACAAAGCC,0.0466
5,AGGTTCGA,0.144
6,AATGATTG,0.143
7,AGCAGAAT,0.152
8,CGGTTTAG,0.0356
9,GGGTGACA,-0.174
10,AGTCGGAA,0.114
11,TCCAGCAA,0.0417
12,GTGGCGCA,-0.112
13,CTACGATA,0.206
14,AGGTTATC,-0.0544
15,CCGTCCAC,-0.00544
16,TCCTGAAA,-0.00985
17,AATGAAAA,0.246
18,AATGGTGG,-0.0413
19,ACTGTCGG,-0.125
20,AGACTGTA,0.0447
21,ATCACGTC,0.16
22,AGATCGGG,-0.195
23,GCGTCGGA,-0.0986
24,CCTATTCC,0.0141
25,ATAAAAGA,0.221

row,Sequence,PBM E-score
1,GCTCTAAA,0.0373
2,ATATATGC,0.224
3,GAATCAGA,0.129
4,AGATAGAC,0.0205
5,CTGCTTGA,-0.183
6,ACGCTTGG,-0.0422
7,CAAGATTC,-0.113
8,ACAGTATC,0.0363
9,AGCTAACT,0.00051
10,ATGAATAA,0.195
11,AGGGAACT,-0.142
12,GCTATGGA,-0.0121
13,GACGGACC,-0.103
14,ATCTGGGA,-0.0628
15,CAAGGGCG,-0.176
16,CTCCTTCC,-0.171
17,ACGCAGAT,-0.0598
18,CGCGCATC,-0.118
19,AATAACGG,0.253
20,GACGATGC,-0.13
21,CCACCCAA,-0.0309
22,AGCTACGG,0.00612
23,TCGCGAGA,0.00323
24,CGATGGTA,-0.0126
25,CAAAGGAC,-0.142

row,Sequence,PBM E-score
1,ATTTTTAA,0.295
2,ACGCGCCA,-0.183
3,AGTCAAGC,-0.19
4,GCAACACC,0.0438
5,CGAAACCG,0.0574
6,CAACTATC,0.0393
7,GCCACAGA,-0.332
8,AATGGGCA,0.0565
9,AAAAATGA,0.197
10,CAACAAGG,0.141
11,CTGTGCAC,-0.117
12,ATAAGGAG,-0.0536
13,CTCCTGTC,-0.027
14,GCCGTTAC,0.0255
15,CTCCATCA,-0.0379
16,GGTGGCAC,-0.193
17,AAGGGTGG,-0.165
18,ATTGAGGA,0.148
19,TCTAATAA,0.167
20,ACGTATGC,0.00249
21,AGCCACCA,-0.0526
22,ATATATAG,0.231
